According to US20240325452A1, “METHODS AND COMPOSITIONS FOR DREADD-ACTIVATABLE CELLS FOR NEURAL REPAIR” (Drexel University, priority 2023, published 2024):
Entries after “also recorded” stand apart in the source; their conditions may differ. At least one compound was matched to its structure with a doubt left.

Assays:
[1] = system: DREADD-expressing V2a spinal interneurons (hM4Di receptor); experiment: Multielectrode array (MEA) recording of spontaneous activity; assay type: cell-based, human; conditions: clozapine 1 uM; V2a spinal interneurons differentiated from hPSCs
[2] = system: transplanted DREADD expressing cells / phrenic network; experiment: Diaphragm electromyography after transplantation into the injured cervical spinal cord; assay type: in vivo; conditions: adult rats, cervical spinal cord injury, 1 month post-transplantation, after Clozapine delivery to the transplanted cells vs Pre-Clozapine

For CN1CCN(C2=Nc3cc(Cl)ccc3Nc3ccccc32)CC1 [clozapine], the “spontaneous neuronal firing (spikes in voltage) on MEA” value [1] was “no spikes in voltage were observed; also recorded: silenced”, the “diaphragm muscle activity (electromyography)” value [2] was “attenuated muscle activity” and the “diaphragm muscle activity (electromyography)” value ([2]; listed as Clozapine) was “decrease in activity compared to Pre-Clozapine”.
